Results are given in words; binding and its absence hold for the method and conditions named. Some entries that bind do so weakly or less than the wild type.
Target: TRPV1 construct used for cryo-EM (pore turret residues 604-626 deleted) (rat) (UniProt O35433)
Assay: cryo-EM structure; […] four knot densities, two DkTx per channel; apo channel refined into the fourfold-symmetric map EMD-5778; both purified

Protein sequences, listed by entry. Tags and fused reporters are not part of them. Lines headed by an entry give the natural chain unless they say otherwise; changes in a name come on top. Chains listed by the source or under a name are the forms on record and can include a tag or linker. Residues count along the entry.
TRPV1 construct used for cryo-EM (pore turret residues 604-626 deleted) (O35433, form named): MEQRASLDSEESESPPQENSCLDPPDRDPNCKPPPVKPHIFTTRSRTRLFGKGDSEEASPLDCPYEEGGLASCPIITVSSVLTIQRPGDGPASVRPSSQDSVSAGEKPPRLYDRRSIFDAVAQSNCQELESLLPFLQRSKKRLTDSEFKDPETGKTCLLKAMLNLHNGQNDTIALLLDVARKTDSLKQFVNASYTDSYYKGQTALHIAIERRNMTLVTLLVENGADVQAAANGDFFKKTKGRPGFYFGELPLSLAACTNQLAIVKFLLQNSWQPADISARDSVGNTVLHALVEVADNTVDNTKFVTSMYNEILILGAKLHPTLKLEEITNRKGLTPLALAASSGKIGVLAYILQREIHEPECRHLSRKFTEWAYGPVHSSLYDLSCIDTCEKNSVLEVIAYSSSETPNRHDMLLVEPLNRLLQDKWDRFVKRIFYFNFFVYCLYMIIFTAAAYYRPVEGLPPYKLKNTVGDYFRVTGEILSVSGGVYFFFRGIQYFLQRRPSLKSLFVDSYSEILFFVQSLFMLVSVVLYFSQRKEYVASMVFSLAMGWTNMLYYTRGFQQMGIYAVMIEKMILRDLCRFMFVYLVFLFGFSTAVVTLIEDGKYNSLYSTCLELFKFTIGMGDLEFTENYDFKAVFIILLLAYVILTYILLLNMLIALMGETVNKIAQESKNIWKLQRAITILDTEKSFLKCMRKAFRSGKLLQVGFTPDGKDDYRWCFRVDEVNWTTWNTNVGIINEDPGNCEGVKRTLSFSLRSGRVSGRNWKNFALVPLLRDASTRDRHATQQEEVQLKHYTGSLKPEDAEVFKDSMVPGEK

## TRPV1 construct used for cryo-EM (pore turret residues 604-626 deleted) (from UniProt O35433 1-838)
  binding: binds
